Test results: patent US10792331B2, “Methods for reducing cardiotoxicity from chemotherapy by administering humanin analog compositions” (LOS ANGELES BIOMEDICAL RESEARCH INSTITUTE AT HARBOR-UCLA …, priority 2015, dated 2020)
At least one peptide structure holds a part that was inferred or is arguable (an end, a ring closure or a residue). Ends that are not written are not given here.

Experiments:
[1] = tested on: DOX-induced cardiotoxicity; assay: Example 1: heart weight and echocardiogram in DOX ± HNG treated mice; format: in vivo, mouse; conditions: co-treatment with DOX
Experimental: The heart containing left and right ventricles were fixed with formalin for hematoxylin/eosin and trichrome staining and TUNEL to detect apoptotic cell. Heart sections were saved for immunohistochemistry. Pieces of left ventricle were fixed with gluteraldehyde for later mitochondria analysis by EM. Heart was snapped frozen and stored at −80 degrees (left and right atriums plus the rest of ventricles) for molecular studies (e.g. ANP/BNP).
Echocardiogram was performed on three mice from each group on day 32, and the rest of the mice on days 34 and 38. […] However when corrected for body weight, the heart: body weight ratio was not different among the groups (FIGS. 3A & 3B.)

[2] = tested on: cells; conditions: compared with HN; cited from earlier work
[3] = tested on: uncoupling protein 2 (Ucp2); assay: Example 3: Ucp2 protein by ProteinSimple (Wes) assay in ventricle lysates; format: in vivo, mouse; conditions: Dox-treated mice
Experimental: Left ventricle samples from mice were sonicated in RIPA buffer (Sigma) supplemented with EDTA-free protease inhibitor cocktail tablets (Roche), and cell debris removed by centrifugation. The protein concentration was analyzed by Bio-Rad Protein Assay and measured by Beckman Du-640 Spectrophotometer.
Protein measurement for the uncoupling protein 2 (Ucp2) was performed using ventricle tissue lysates from control, Dox only, Dox+HNG, Dox+DRZ, and Dox+HNG+DRZ treated mice. Protein expression was quantified by Wes Separation Module with 25 Capillary Cartridges for 12-230 kDa (Wes®). Proteins (4 microgram/sample) were separated through a size-resolving matrix in capillaries, immobilized to the inner capillary wall, incubated with anti-Ucp2 rabbit monoclonal antibody (Cell Signaling) at concentration of 1 μg/ml and anti-rabbit secondary antibodies before detection using chemiluminescence. Signals reflected as the area under the curve of Ucp2 protein were generated automatically at the end of the run. The Ucp2 protein levels were quantified by a ratio of the area under the curve from each sample that was normalized by the corresponding area under the curve of the corresponding total protein.

[4] = in vivo; cited from earlier work
[5] = tested on: nuclear-gene-encoded mitochondrial gene expression; assay: Example 3: mitochondrial gene focused qRT-PCR array of mouse hearts; conditions: Dox-treated mice
[6] = Example 3: outcome and general health (deaths, body weight, heart weight); conditions: in Dox-treated mice
[7] = tested on: Atrial Natriuretic Factor (ANF); assay: Example 3: real-time PCR of ANF transcripts in left ventricular tissue; conditions: added to Dox-treated mice
[8] = tested on: Dox-induced cardiotoxicity mouse model; assay: Example 3: M-mode echocardiography of cardiac function; conditions: Dox-treated mice; summary
[9] = tested on: cardiac fibrosis; assay: Example 3: Masson's Trichrome quantification of fibrosis in hearts; conditions: in Dox-treated mice
[10] = tested on: DOX induced cardiotoxicity; assay: Example 2: echocardiogram ejection fraction, Dox, HNG and DRZ alone or in combinations; format: in vivo, mouse; conditions: DOX treated mice; HNG 5 mg/day IP, DRZ 60 mg/week IP

## MAPRGFSCLLLLTGEIDLPVKRRA [HNG]
[1]
  DOX induced decrease in ejection fraction, effect of co-treatment: returned these DOX induced cardiac function parameters to normal
  DOX induced decrease in fractional ventricular shortening, effect of co-treatment: returned these DOX induced cardiac function parameters to normal
[2]
  Cytoprotective Action: 10 to 1000 more potent than HN
[3]
  Ucp2 protein suppressed by Dox, effect of co-treatment: significantly normalized Ucp2 protein suppressed by Dox to control levels
[4]
  protection of the testis from chemotherapeutic injury: protects the testis form chemotherapeutic injury
[5]
  Dox-induced Ucp2 and Ucp3 mRNA expression, effect of co-treatment: reversed Dox-induced Ucp2 and Ucp3 mRNA expression to control levels
[6]
  Dox-induced BW loss, effect of co-treatment: attenuated the Dox-induced BW loss
[7]
  Dox-increased ANF expression, effect of addition: returned expression of ANF to control levels
[8]
  Dox-induced cardiac dysfunction, protective effect: Moderate cytoprotective effect
[9]
  Dox-induced cardiac fibrosis, effect of co-treatment: did not reduce Dox-induced cardiac fibrosis
[10]
  DOX-induced decrease in EF, effect of co-treatment: ameliorated
